Test results as given in the supplement of paper PMC6078165.
The reference is the same well before dosing, and untreated signal decays as well.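 Fibroblast labels denote human fibroblasts, mainly primary ones from uterus (C12385, HUF), lung (H6013), bone (Hs27A), adrenal (HADF) and skin (WS1), plus mammary HMF and breast cancer-associated Hs343T. Cancer cells are basal-like or mesenchymal-like triple-negative breast cancer lines. A hit is a response shift exceeding 3x replicate standard deviation. The tissue of the other fibroblasts is not given here.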

System: Hs578T
Assay: relative JC-1 red fluorescence (viability) vs pre-drug, coculture with fibroblast (fraction); higher = more viable cancer cells
Experimental: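 JC-1 labelled TNBC cells cocultured 1:1 (1,500 cells each) with CellTrace Violet stained primary or stromal fibroblasts in 384-well plates in FluoroBrite medium, treated with one of 42 anticancer drugs at 0.1, 1, 10 or 100 uM. JC-1 red fluorescence (mitochondrial integrity in cancer cells only) was read by plate reader every 8 h for 72 h. Values are normalised to each well's pre-drug value. The stock of one drug was tenfold lower, so its dose labels may be too high.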

CC[C@]1(O)C[C@@H]2CN(CCc3c([nH]c4ccccc34)[C@@](C(=O)OC)(c3cc4c(cc3OC)N(C)[C@H]3[C@@](O)(C(=O)OC)[C@H](OC(C)=O)[C@]5(CC)C=CCN6CC[C@]43[C@@H]65)C2)C1 [Vinblastine]
relative JC-1 red fluorescence
Settings	8 h	16 h	24 h	32 h	40 h	48 h	56 h	64 h	72 h
0.1 µM	0.8683	0.788	0.712	0.651	0.571	0.536	0.516	0.485	0.482
1 µM	0.852	0.775	0.7454	0.702	0.642	0.599	0.585	0.558	0.556

relative JC-1 red fluorescence
Settings	8 h	16 h	24 h	32 h	40 h	48 h	56 h	64 h	72 h
0.1 µM, coculture fibroblast: C12385	0.833	0.7247	0.699	0.58	0.508	0.482	0.459	0.465	0.47
0.1 µM, coculture fibroblast: H6013	0.85088	0.8395	0.7971	0.749	0.708	0.689	0.682	0.686	0.667
0.1 µM, coculture fibroblast: H6019	0.802	0.705	0.68	0.596	0.553	0.532	0.511	0.507	0.494
0.1 µM, coculture fibroblast: H6076	0.8894	0.806	0.746	0.703	0.637	0.636	0.621	0.616	0.619
0.1 µM, coculture fibroblast: H6231	0.929	0.823	0.7299	0.657	0.574	0.539	0.49	0.471	0.46
0.1 µM, coculture fibroblast: HADF	0.85	0.788	0.717	0.64	0.596	0.571	0.544	0.543	0.527
0.1 µM, coculture fibroblast: HCFa	0.8247	0.777	0.705	0.617	0.5437	0.5	0.464	0.447	0.414
0.1 µM, coculture fibroblast: HCPF	0.895	0.833	0.802	0.756	0.67	0.628	0.597	0.559	0.541
0.1 µM, coculture fibroblast: HHSteC	0.867	0.802	0.728	0.649	0.594	0.552	0.53	0.508	0.483
0.1 µM, coculture fibroblast: HMF	0.879	0.858	0.856	0.84	0.772	0.747	0.718	0.706	0.701
0.1 µM, coculture fibroblast: HPFa	0.924	0.825	0.778	0.705	0.668	0.64	0.607	0.596	0.57
0.1 µM, coculture fibroblast: HUF	0.908	0.768	0.764	0.65	0.585	0.567	0.539	0.538	0.537
0.1 µM, coculture fibroblast: Hs27A	0.909	0.8149	0.763	0.688	0.621	0.604	0.573	0.566	0.531
0.1 µM, coculture fibroblast: Hs343T	0.87	0.784	0.734	0.692	0.608	0.571	0.545	0.524	0.543
0.1 µM, coculture fibroblast: WS1	0.83	0.715	0.69	0.589	0.5283	0.51004	0.474	0.474	0.475
1 µM, coculture fibroblast: C12385	0.818	0.7134	0.69049	0.5848	0.529	0.503	0.477	0.48	0.49
1 µM, coculture fibroblast: H6013	0.888	0.891	0.86	0.812	0.766	0.757	0.733	0.738	0.726
1 µM, coculture fibroblast: H6019	0.754	0.705	0.71	0.624	0.59	0.5796	0.567	0.563	0.553
1 µM, coculture fibroblast: H6076	0.8629	0.799	0.772	0.758	0.702	0.698	0.7	0.689	0.7
1 µM, coculture fibroblast: H6231	0.8765	0.7846	0.7295	0.684	0.612	0.59	0.565	0.548	0.558
1 µM, coculture fibroblast: HADF	0.901	0.833	0.781	0.711	0.656	0.6295	0.5951	0.59	0.573
1 µM, coculture fibroblast: HCFa	0.83	0.781	0.731	0.673	0.619	0.608	0.587	0.578	0.559
1 µM, coculture fibroblast: HCPF	0.904	0.803	0.76583	0.7313	0.669	0.628	0.631	0.596	0.591
1 µM, coculture fibroblast: HHSteC	0.858	0.8142	0.7598	0.685	0.618	0.577	0.55	0.52	0.494
1 µM, coculture fibroblast: HMF	0.86	0.779	0.735	0.694	0.596	0.557	0.536	0.512	0.513
1 µM, coculture fibroblast: HPFa	0.934	0.858	0.806	0.718	0.642	0.609	0.567	0.549	0.513
1 µM, coculture fibroblast: HUF	0.884	0.748	0.742	0.621	0.556	0.527	0.497	0.495	0.497
1 µM, coculture fibroblast: Hs27A	0.925	0.87296	0.812	0.771	0.726	0.718	0.689	0.682	0.642
1 µM, coculture fibroblast: Hs343T	0.845	0.744	0.69	0.6479	0.563	0.537	0.517	0.512	0.5296
1 µM, coculture fibroblast: WS1	0.783	0.726	0.671	0.569	0.501	0.478	0.454	0.462	0.465
